This test is described as follows: qHTS Assay for Modulators of Lamin A Splicing. The conditions noted are these: HeLa LMNA splicing GFP/RFP minigene ratio, 48 h. In a few lines:
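S3 HeLa cells stably expressing lamin A-EGFP splicing minigene plus DsRed2, 600 cells/well, 48 h compound exposure at 37C. Laser-scanning cytometry; analysed as GFP (500-530 nm)/RFP (575-640 nm) total intensity ratio; 0.5% DMSO vehicle.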
(In general: qHTS replaces the single test concentration by a dilution series.)

Where [1] appears, read: measured here: GFP splicing reporter channel.
Setting [2] is: measured here: RFP viability control channel.

The other results are listed elsewhere or left out. These are further read-outs of the screen, such as a control signal, another cell line or another target. No call is given for them. The list favours compounds with an active or inconclusive main result. The note in brackets gives the kind of curve behind each potency; many fits are weak.

For orientation: AC50 means the concentration giving half of the maximal activity seen. For the compound `CCn1c(SCC(=O)Nc2sc3c(c2C#N)CCC(C(C)(C)C)C3)nnc1-c1ccco1` (stereo not given), the AC50 under setting [1] was 17.8 µM [falling, partial curve, poor fit].

For `CCc1nc(SCC(=O)c2ccccc2)c2ccccc2n1`, the AC50 reads like this: under setting [1], 14.1 µM [falling, single point]; under setting [2], 5.01 µM [falling, partial curve, poor fit].

Take `O=S(=O)(NC1CC1)c1ccc(S(=O)(=O)N2CCCC(c3nc(-c4cccnc4)no3)C2)cc1` (stereo not given): under setting [2], the AC50 is 12.6 µM [rising, single point].

For the compound `Cc1ccc(OCCOc2ccc(Cl)cc2Cl)c([N+](=O)[O-])n1`, the AC50 reads like this: under setting [1], 14.1 µM [rising, single point]; under setting [2], 15.8 µM [rising, partial curve].

`CCn1c(NC(=O)c2cccc(Cn3cc(Cl)cn3)c2)nc2ccccc21`: under setting [2], the half-maximal activity concentration (AC50) was 22.4 µM [rising, single point].

For `Cc1ccc(N2CC(NC(=O)/C=C\c3ccc4c(c3)OCO4)CC2=O)cc1C` (stereo not given), the half-maximal activity concentration (AC50) under setting [2] was 7.08 µM [rising, full curve, poor fit].

As for `CCN(CC)C(=O)n1cnc(-c2ccccc2)c1-c1ccccc1`, the AC50 was 4.47 µM [rising, partial curve] under setting [1] and 6.31 µM [rising, partial curve, poor fit] under setting [2].

For `CCN(CC)C(=O)C1CCN(S(=O)(=O)c2ccc3c(c2)CCCN3C(C)=O)CC1`, the AC50 was 0.0355 µM [rising, full curve] under setting [1] and 0.0224 µM [rising, full curve, poor fit] under setting [2].

For the compound `COc1cccc(-c2cncnc2NCc2ccccc2)c1`, the AC50 is, setting by setting: under setting [1], 12.6 µM [falling, partial curve, poor fit]; under setting [2], 3.55 µM [rising, single point].

Consider `COC(=O)c1scc(-c2ccccc2)c1S(=O)(=O)Nc1ccccc1`, for which the AC50 under setting [1] is 1.78 µM [rising, full curve, poor fit].

As for `O=C(O)c1c(-c2ccccc2)c2oc3ccccc3c2[nH]c1=O`, the AC50 is 35.5 µM [rising, single point] under setting [1] and 20 µM [rising, single point] under setting [2].

On to `Cc1ccc(-n2ncc3c(=O)n(-c4ccc(C)c(C)c4)c(-c4ccco4)nc32)cc1`, for which the AC50 under setting [2] is 20 µM [rising, single point].

As for `N#CC1=C(N)Oc2c(ccc3cccnc23)C1c1cccnc1` (stereo not given), under setting [2], the AC50 is 6.31 µM [rising, full curve].

In the case of `O=C(Nc1cccc(S(=O)(=O)N2CCCCC2)c1)c1c2c(nc3ccccc13)CCN(Cc1ccccc1)C2`, the AC50 runs as follows: under setting [1], 35.5 µM [rising, single point]; under setting [2], 35.5 µM [rising, single point].

`O=C(c1cccc([N+](=O)[O-])c1)N1CCN(c2cccc(Cl)c2)CC1`: the AC50 under setting [2] is 31.6 µM [rising, single point].

Turning to `O=S(=O)(c1ccc2c(c1)OCCO2)N1CCC(n2nnc3cc(F)ccc32)CC1`, the AC50 under setting [2] was 31.6 µM [rising, single point].

With `Cc1nn(C(=O)c2cccc([N+](=O)[O-])c2C)c(C)c1S(=O)(=O)N1CCOCC1`, the AC50 under setting [1] is 11.2 µM [falling, partial curve, poor fit].

As to `CCC(=O)Nc1ccc2c(c1)ncn2-c1ccccc1`, the AC50 under setting [2] is 4.47 µM [falling, full curve, poor fit].

With `CC(=O)Nc1ccc(S(=O)(=O)NCC2CCC(C(=O)NCCc3ccccc3)CC2)cc1` (stereo not given), the AC50 under setting [2] was 10 µM [falling, partial curve, poor fit].

`Cc1ccc(NNC(=O)C(=O)N2CCCCC2)cc1`: the AC50 under setting [2] is 35.5 µM [rising, single point].

On to `CCOC(=O)c1[nH]c2ccc(F)cc2c1NC(=O)CN1CCN(C/C=C/c2ccccc2)CC1`, for which the AC50 is, setting by setting: under setting [1], 17.8 µM [rising, partial curve]; under setting [2], 12.6 µM [rising, partial curve].

`COc1ccccc1NC(=O)c1c(Nc2ccccc2F)sc(C(=O)Nc2cccc(Cl)c2)c1N`: the AC50 under setting [2] is 22.4 µM [rising, single point].

As to `O=C1CC(c2nc3ccccc3[nH]2)CN1c1cccc(C(F)(F)F)c1` (stereo not given), the half-maximal activity concentration (AC50) under setting [2] was 11.2 µM [rising, partial curve].

For `CC(=O)N1N=C(c2ccc(C)cc2)CC1c1ccco1` (stereo not given), under setting [2], the AC50 was 0.00794 µM [falling, full curve, poor fit].

With `O=C(N/N=C/c1cn(Cc2ccccc2)c2ccccc12)c1cccnc1`, the AC50 is, setting by setting: under setting [1], 2.24 µM [rising, full curve]; under setting [2], 7.08 µM [rising, partial curve].

For the compound `CC(C)Cn1c(SCC(=O)NCc2ccc(Cl)cc2)nnc1-c1cccc(S(=O)(=O)N2CCOCC2)c1`, under setting [2], the AC50 is 31.6 µM [rising, single point].

As for `CCOc1ccc(OCc2cccc(C(=O)N(CC)CC)c2)cc1`, the AC50 is, setting by setting: under setting [1], 35.5 µM [falling, single point]; under setting [2], 11.2 µM [rising, partial curve, poor fit].

Consider `O=C(COC(=O)c1ccc(F)cc1)NCCc1ccc(F)cc1`, for which the AC50 is, setting by setting: under setting [1], 35.5 µM [falling, partial curve]; under setting [2], 20 µM [falling, partial curve].

In the case of `CC(=O)Nc1ccc(Br)c2ccccc12`, under setting [1], the AC50 is 0.02 µM [falling, partial curve, poor fit].

For the compound `COc1ccccc1N1CCN(C(=O)Cn2ncc3c([nH]c4ccccc43)c2=O)CC1`, the AC50 under setting [2] was 4.47 µM [falling, single point].

For `O=C(C1CCN(c2nnc(-n3cccc3)s2)CC1)N1CCN(c2cccc(C(F)(F)F)c2)CC1`, the AC50 runs as follows: under setting [1], 0.2 µM [rising, full curve]; under setting [2], 2.82 µM [rising, partial curve].

In the case of `Cc1cccc(Nc2nc(N)c([N+](=O)[O-])c(N3CCC(C)CC3)n2)c1`, the half-maximal activity concentration (AC50) under setting [1] is 35.5 µM [rising, single point] and the half-maximal activity concentration (AC50) under setting [2] was 22.4 µM [rising, single point].

In the case of `CCOC(=O)CSc1nc(C)c2ccc(C)cc2n1`, the AC50 under setting [2] was 35.5 µM [rising, single point].

Consider `Cc1ccc(N(CC(O)COCc2ccco2)S(=O)(=O)c2ccc(C)cc2)cc1` (stereo not given), for which the AC50 runs as follows: under setting [1], 15.8 µM [falling, single point]; under setting [2], 12.6 µM [falling, partial curve, poor fit].

Regarding `COc1ccc(OC)c(S(=O)(=O)N2CCC(c3ccncc3)CC2)c1`, under setting [1], the AC50 was 0.0141 µM [rising, full curve].

As to `O=C(NC(Nc1ccccn1)C(Cl)(Cl)Cl)c1ccccc1` (stereo not given), the AC50 under setting [1] is 22.4 µM [falling, single point].

As to `COc1cc(C(=O)Nc2cccc(-c3nc4ncccc4o3)c2C)cc(OC)c1OC`, the AC50 under setting [2] is 0.0251 µM [falling, full curve].

As for `COc1cccc(NC(=O)CSC2=Nc3ccccc3N=C(c3ccc(F)cc3)C2)c1`, the AC50 under setting [2] was 3.16 µM [rising, partial curve, poor fit].

For the compound `CCCC1CCC(c2ccc(C(=O)NN)cc2)CC1` (stereo not given), the AC50 under setting [2] was 35.5 µM [rising, partial curve].

As for `O=C(CNC(=O)c1ccc(S(=O)(=O)N2CCCC2)cc1)N/N=C/c1c(Cl)cccc1Cl`, the concentration at half-maximal activity (AC50) under setting [2] is 35.5 µM [rising, single point].

In the case of `CCc1ccc(-n2c(SCc3ccccc3F)nc3[nH]ncc3c2=O)cc1`, the AC50 is 35.5 µM [falling, single point] under setting [1] and 35.5 µM [falling, single point] under setting [2].

For the compound `CCOC(=O)c1c(N)n(-c2cccc(OC)c2)c2nc3ccccc3nc12`, the AC50 under setting [1] is 4.47 µM [rising, partial curve].

Turning to `O=C(NCCNc1ccc(Cl)cc1[N+](=O)[O-])c1cccnc1`, the AC50 under setting [1] was 0.251 µM [rising, full curve, poor fit].

On to `O=C(Nc1ccn(Cc2ccccc2F)n1)c1ccc(COc2ccc(Cl)cc2Cl)o1`, for which the AC50 was 31.6 µM [rising, single point] under setting [1] and 31.6 µM [rising, single point] under setting [2].

Consider `C[C@@]12CC[C@@H]3c4ccc(O)cc4CC[C@H]3[C@H]1CC[C@H]2O`, for which the concentration at half-maximal activity (AC50) runs as follows: under setting [1], 0.00708 µM [falling, full curve]; under setting [2], 0.224 µM [falling, partial curve, poor fit].

On to `Cc1ccc(-c2nc3ccccc3s2)cc1NC(=S)NC(=O)c1cccc2ccccc12`, for which the AC50 under setting [2] was 0.708 µM [rising, full curve, poor fit].

Turning to `COc1ccc(NC(=S)NCCc2c[nH]c3ccccc23)cc1`, the AC50 under setting [2] was 35.5 µM [rising, single point].

Turning to `Cc1cc(C)cc(N(C(=O)c2sc(C)nc2C)C(C(=O)NC(C)(C)C)c2ccncc2)c1` (stereo not given), under setting [1], the AC50 was 1.41 µM [rising, partial curve, poor fit].

As for `Cc1cc(N2CCCCC2)nc2ccc(NC(=O)c3ccc(Br)o3)cc12`, the AC50 is 22.4 µM [rising, partial curve, poor fit] under setting [1] and 31.6 µM [rising, single point] under setting [2].

On to `OCCN1CCN(CCCc2c3c(cc4c2CCC4)CCC3)CC1`, for which the concentration at half-maximal activity (AC50) is, setting by setting: under setting [1], 35.5 µM [rising, single point]; under setting [2], 35.5 µM [rising, single point].

For the compound `O=C(NCCc1csc(-c2ccccc2)n1)c1ccc(Br)o1`, the AC50 under setting [2] was 11.2 µM [rising, partial curve].

As for `O=C(NC1CCCCC1)c1cc(Nc2cccc(C(F)(F)F)c2)nc2ccccc12`, the AC50 under setting [2] is 4.47 µM [falling, partial curve, poor fit].

For `CN(c1ccccc1)c1nc(N2CCCC2)nc(-n2ccnc2)n1`, the AC50 was 25.1 µM [rising, single point] under setting [1] and 22.4 µM [rising, single point] under setting [2].

On to `Cc1ccc(C(=O)N(C)c2nnc(-c3ccncc3)s2)cc1`, for which the half-maximal activity concentration (AC50) runs as follows: under setting [1], 12.6 µM [falling, single point]; under setting [2], 15.8 µM [falling, partial curve, poor fit].

Source of the values: PubChem BioAssay AID1487 (National Center for Advancing Translational Sciences (NCATS), 2009).
